# Results taken from paper PMC8864064.
# By UniProt entry, the sequences of proteins in these tests, tags left out. Where a name states a change or a piece, a line headed by the entry shows the natural chain unless it says otherwise. Chains listed by the source or under a name are the forms on record and can include a tag or linker. Residues count along the entry.
# NOTCH3 EGF1–5 wildtype (truncated human Notch3 extracellular domain, first five EGF-like repeats, amino acids 1–234) (Q9UM47, residues 40-234): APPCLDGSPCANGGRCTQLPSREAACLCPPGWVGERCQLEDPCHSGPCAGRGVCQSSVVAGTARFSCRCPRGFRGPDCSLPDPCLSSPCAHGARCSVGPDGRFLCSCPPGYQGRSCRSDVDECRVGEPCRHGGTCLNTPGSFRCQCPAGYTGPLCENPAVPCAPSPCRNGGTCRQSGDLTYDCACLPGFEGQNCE
# NOTCH3 EGF1–5 R133C (CADASIL-mutated truncated human Notch3 extracellular domain, amino acids 1–234) (Q9UM47, form named): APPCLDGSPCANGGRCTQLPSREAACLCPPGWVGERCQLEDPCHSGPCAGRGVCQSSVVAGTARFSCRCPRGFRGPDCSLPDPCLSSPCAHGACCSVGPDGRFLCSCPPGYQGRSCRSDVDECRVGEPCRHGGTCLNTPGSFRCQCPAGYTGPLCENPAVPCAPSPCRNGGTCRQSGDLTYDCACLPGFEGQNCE
# These are yes or no findings as the source states them, for the method shown. Some entries that bind do so weakly or less than the wild type.
# Columns and labels:
# [1] = molecular target: NOTCH3 EGF1–5 wildtype (truncated human Notch3 extracellular domain, first five EGF-like repeats, amino acids 1–234) (human) (UniProt Q9UM47); experiment: condition: only in SDS, non-reducing SDS-PAGE (tests disulfide-linked oligomers); non-reducing SDS-PAGE; purified proteins in SDS loading buffer without DTT, 95°C for 5 min, 4–20% gradient gels, Coomassie; compared with reducing conditions (DTT); both purified
# [2] = molecular target: NOTCH3 EGF1–5 R133C (CADASIL-mutated truncated human Notch3 extracellular domain, amino acids 1–234) (human) (UniProt Q9UM47); experiment: as above
# [3] = molecular target: NOTCH3 EGF1–5 R133C (CADASIL-mutated truncated human Notch3 extracellular domain, amino acids 1–234) (human) (UniProt Q9UM47); experiment: native gel or EMSA; N3 EGF1–5 proteins at 30 µM in 1 × PBS, 37°C for 80 h with and without Bri2 BRICHOS at 1:1 and 1:2 molar; native loading buffer free of DTT and SDS; 6% native PAGE; both purified
substance,measurement,setting,value
"NOTCH3 EGF1–5 wildtype (truncated human Notch3 extracellular domain, first five EGF-like repeats, amino acids 1–234) (from UniProt Q9UM47 40-234) (domain or fragment)",binding,[1],no binding
"NOTCH3 EGF1–5 R133C (CADASIL-mutated truncated human Notch3 extracellular domain, amino acids 1–234) (from UniProt Q9UM47 40-234) (domain or fragment)",binding,[2],no binding
Recombinant human Bri2 BRICHOS domain (from UniProt Q9Y287 137-231) (domain or fragment),binding,[3],binds
